Assay [1] concerns the target FLAG-tagged ATG14L (p3XFLAG-ATG14L), purified (UniProt Q6ZNE5). Briefly: co-IP; in vitro PI3K assembly: individually purified FLAG-tagged PI3K components (VPS15 and VPS34 purified and added together) incubated alone or with purified VCP and/or 20 uM SMER28, then immunoprecipitation of ATG14L; western blot; both purified. (Immunoblotting shows a protein as a band on a membrane.)

Chains of the proteins cited; added tags and fusions are not shown.
UniProt Q6ZNE5: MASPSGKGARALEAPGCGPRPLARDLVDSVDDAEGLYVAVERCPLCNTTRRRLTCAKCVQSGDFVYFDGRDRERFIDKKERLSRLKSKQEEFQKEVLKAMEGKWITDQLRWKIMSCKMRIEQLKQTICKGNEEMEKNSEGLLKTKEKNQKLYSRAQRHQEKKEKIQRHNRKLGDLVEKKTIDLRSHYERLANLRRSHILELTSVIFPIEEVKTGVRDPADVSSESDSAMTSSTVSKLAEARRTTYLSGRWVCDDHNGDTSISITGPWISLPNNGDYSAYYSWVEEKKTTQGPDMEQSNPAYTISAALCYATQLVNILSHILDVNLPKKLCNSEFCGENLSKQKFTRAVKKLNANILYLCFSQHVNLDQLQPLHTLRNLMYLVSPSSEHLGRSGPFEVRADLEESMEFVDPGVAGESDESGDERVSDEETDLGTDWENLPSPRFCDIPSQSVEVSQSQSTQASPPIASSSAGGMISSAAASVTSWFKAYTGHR

Assay [2] addresses ATG14L (Beclin 1-associated autophagy-related key regulator), endogenous (human (endogenous in HeLa)) (UniProt Q6ZNE5). Briefly: co-IP; endogenous ATG14L immunoprecipitated from HeLa lysate (Dynabeads Protein A; 20 mM Tris pH 7.4, 2 mM MgCl2, 200 mM NaCl, 0.1% NP-40); cells treated with DMSO, 20 uM SMER28 or 10 uM DBeQ for 6 h; western blot.

Results are given in words; binding and its absence hold for the method and conditions named. For some assays here: In cells and extracts the contact can be indirect. Some binding calls cover weakened binding; strength is not graded here.

In publication PMC9288506, “Compounds activating VCP D1 ATPase enhance both autophagic and proteasomal neurotoxic protein clearance” (Nature Communications, 2022) one finds binding data, which are given here for 2 substances.

On to “purified VCP (from pGEX-VCP-GST, GST tag removed) (from UniProt P55072 1-806)”, for which the binding result in assay [1] is “binds”. “Valosin-containing protein (VCP), endogenous (from UniProt P55072 1-806)”: in assay [2], the binding result is “binds”.
